Source: article PMC8169937
Results are given in words; binding and its absence hold for the method and conditions named. In cells and extracts the contact can be indirect. Some binding calls cover weakened binding; strength is not graded here.

Amino acid sequences for entries named in this document (tags omitted).
UniProt O09106: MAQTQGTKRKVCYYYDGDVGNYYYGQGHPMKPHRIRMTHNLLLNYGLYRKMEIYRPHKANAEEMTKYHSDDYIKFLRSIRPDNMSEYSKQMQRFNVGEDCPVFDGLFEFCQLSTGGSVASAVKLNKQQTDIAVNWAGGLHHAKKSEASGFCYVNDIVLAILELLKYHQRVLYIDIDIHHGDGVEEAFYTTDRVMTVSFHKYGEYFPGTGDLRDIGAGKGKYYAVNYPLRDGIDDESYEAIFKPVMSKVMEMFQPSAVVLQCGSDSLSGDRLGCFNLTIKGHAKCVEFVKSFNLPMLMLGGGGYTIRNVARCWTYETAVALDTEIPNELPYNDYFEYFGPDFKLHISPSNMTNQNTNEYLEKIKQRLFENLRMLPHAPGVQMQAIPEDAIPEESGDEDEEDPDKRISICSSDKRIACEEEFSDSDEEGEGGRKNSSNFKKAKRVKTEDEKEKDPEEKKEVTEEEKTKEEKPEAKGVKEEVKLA
UniProt P70288: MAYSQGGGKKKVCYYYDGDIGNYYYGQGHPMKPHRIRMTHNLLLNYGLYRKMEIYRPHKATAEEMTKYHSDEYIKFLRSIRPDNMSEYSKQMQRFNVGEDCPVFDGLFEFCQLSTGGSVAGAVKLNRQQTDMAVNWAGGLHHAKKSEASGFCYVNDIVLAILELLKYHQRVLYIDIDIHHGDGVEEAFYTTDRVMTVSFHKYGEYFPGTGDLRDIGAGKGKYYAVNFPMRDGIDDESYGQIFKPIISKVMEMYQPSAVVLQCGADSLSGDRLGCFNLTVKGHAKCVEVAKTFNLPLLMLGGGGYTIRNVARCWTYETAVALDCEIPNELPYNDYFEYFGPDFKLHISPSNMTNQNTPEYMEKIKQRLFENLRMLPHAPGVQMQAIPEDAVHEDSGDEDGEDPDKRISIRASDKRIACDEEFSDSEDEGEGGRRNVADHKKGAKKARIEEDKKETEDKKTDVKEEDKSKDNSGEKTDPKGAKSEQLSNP

T1: ZFP541 (mouse (endogenous in testis)) (UniProt Q0GGX2)
T1 sequence: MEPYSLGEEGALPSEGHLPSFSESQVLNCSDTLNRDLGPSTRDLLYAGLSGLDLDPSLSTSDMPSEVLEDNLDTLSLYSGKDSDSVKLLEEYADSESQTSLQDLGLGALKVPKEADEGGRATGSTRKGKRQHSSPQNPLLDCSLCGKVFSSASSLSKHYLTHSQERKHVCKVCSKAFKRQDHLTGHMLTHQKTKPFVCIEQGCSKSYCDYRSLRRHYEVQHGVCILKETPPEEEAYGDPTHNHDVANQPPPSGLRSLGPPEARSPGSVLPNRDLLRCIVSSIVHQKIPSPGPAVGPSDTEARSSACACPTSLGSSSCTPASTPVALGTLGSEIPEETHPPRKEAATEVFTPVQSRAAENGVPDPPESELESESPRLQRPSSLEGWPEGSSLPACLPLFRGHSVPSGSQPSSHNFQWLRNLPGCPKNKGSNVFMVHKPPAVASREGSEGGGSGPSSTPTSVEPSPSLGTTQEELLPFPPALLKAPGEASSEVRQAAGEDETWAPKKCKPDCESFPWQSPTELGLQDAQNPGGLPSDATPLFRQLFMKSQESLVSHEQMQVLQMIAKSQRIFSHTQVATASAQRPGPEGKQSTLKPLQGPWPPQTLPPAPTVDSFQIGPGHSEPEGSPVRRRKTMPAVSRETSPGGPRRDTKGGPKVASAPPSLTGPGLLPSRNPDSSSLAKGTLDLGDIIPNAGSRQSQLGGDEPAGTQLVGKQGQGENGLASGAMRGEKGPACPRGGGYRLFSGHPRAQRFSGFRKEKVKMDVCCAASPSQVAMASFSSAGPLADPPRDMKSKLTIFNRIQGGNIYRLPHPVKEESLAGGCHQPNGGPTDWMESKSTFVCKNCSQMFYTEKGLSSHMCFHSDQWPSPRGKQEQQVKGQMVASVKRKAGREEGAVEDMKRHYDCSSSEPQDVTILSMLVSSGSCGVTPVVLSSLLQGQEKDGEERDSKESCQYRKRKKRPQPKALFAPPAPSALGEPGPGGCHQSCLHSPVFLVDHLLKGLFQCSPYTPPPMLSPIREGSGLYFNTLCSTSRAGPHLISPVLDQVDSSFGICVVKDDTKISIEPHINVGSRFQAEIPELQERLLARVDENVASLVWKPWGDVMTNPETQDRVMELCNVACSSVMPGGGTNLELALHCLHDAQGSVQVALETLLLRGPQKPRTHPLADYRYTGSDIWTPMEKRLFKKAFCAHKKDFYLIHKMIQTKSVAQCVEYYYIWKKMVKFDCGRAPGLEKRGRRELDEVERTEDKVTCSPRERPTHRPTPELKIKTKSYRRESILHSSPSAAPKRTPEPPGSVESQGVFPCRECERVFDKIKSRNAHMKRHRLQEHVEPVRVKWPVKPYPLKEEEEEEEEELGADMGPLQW


Target: T1, ZFP541 (mouse (endogenous in testis))
Test: co-IP; endogenous ZFP541 or KCTD19 immunoprecipitated with affinity-purified rabbit antibodies crosslinked to protein A-Dynabeads from chromatin extracts of WT mouse testes; beads washed with low salt extraction buffer; immunoblot

| binding | Molecule |
| --- | --- |
| binds | HDAC1 (from UniProt O09106 1-482) (enzyme) |
| binds | HDAC2 (from UniProt P70288 1-488) (enzyme) |
| binds | terminal deoxynucleotidyltransferase-interacting factor 1 (TDIF1) (protein, UniProt Q99LB0 1-328) MGATGDTEQPRGPGGAERGGLELGDAGAAGQPVLTNPWNIMIKHRQVQRRGRRSQMTTSFTDPAISMDLLRAVLQPSINEEIQGVFNKYMKFFQKAALNVRDNVGEEVDAEQLIQEACRSCLEQAKLLFSDGEKVIPRLAHELPGIKRGRQAEEESHRGSPIPKKRKGRPPGHVLSNDRAAAGMVWKQKSCEPIRREGPKWDPARLNESTTFVLGSRANKALGMGGTRGRIYIKHPHLFKYAADPQDKHWLAEQHHMRATGGKMAYLLIEEDIRDLAASDDYRGCLDLKLEELKSFVLPSWMVEKMRKYMETLRTENEHRAAEAPPQT |
